# From the supplement of paper PMC12067093, “Discovery and optimisation of a covalent ligand for TRIM25 and its application to targeted protein ubiquitination” (Chemical Science, 2025)
# The list shows a part of the results.
# Target: T1, NTAN1_Q96AB6_75_DGSISILGSDDATTCHIVVLR (UniProt Q96AB6)
# T1 sequence (whole entry): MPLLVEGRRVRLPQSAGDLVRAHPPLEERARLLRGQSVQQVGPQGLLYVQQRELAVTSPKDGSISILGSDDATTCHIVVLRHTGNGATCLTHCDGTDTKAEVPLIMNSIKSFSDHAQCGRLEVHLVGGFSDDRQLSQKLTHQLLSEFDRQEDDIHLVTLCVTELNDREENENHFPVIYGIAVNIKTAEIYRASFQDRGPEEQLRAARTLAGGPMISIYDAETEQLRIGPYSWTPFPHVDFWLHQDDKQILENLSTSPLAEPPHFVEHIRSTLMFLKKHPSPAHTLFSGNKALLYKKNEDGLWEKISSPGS
# Assay: probe-labelled cysteine peptide fold change vs DMSO (competition) (log2 fold change); higher = less target engagement (more negative = stronger competition)
# Conditions: THP-1, incubation time: 4 h
# 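Further: competitive profiling in live THP-1 cells: cysteine peptides tagged with an iodoacetamide desthiobiotin (IA-DTB) probe, intensity after compound treatment relative to DMSO-treated cells.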
smiles,measurement,setting,value
Cc1cc(C(=O)N2CCCN(C(=O)CCl)CC2)ccc1-c1ccccc1 [compound 10],probe-labelled cysteine peptide fold change,10 µM,-0.164
same,probe-labelled cysteine peptide fold change,50 µM,-0.305
